Results as given in the supplement of paper PMC8728848.
Some of the results follow.

Columns and labels:
Assay in all cases: glycan array binding signal (z-score within array); higher = stronger binding
Conditions in all cases: glycan notation: IUPAC condensed, linker removed
Gal3S4S(b1-4)GlcNAc = biological target: Gal3S4S(b1-4)GlcNAc
In short: (§1)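 The binding signal is a Z-score computed within each array. Data were drawn from 3228 arrays in the Consortium for Functional Glycomics database, restricted to those with a known protein sequence. Scores were averaged over arrays of the same protein sequence at different concentrations or buffers, and over linkers, and negative values can be taken as non-binding.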

Gal3S6S(b1-4)GlcNAc = biological target: Gal3S6S(b1-4)GlcNAc
In short: as §1

Gal3S6S(b1-4)GlcNAc6S = biological target: Gal3S6S(b1-4)GlcNAc6S
In short: as §1

Gal4S(b1-4)GlcNAc = biological target: Gal4S(b1-4)GlcNAc
In short: as §1

Gal4S6S(b1-4)GlcNAc = biological target: Gal4S6S(b1-4)GlcNAc
In short: as §1

Gal6P(b1-4)GlcNAc = biological target: Gal6P(b1-4)GlcNAc
In short: as §1

Gal6S(b1-3)GlcNAc = biological target: Gal6S(b1-3)GlcNAc
In short: as §1

Gal6S(b1-3)GlcNAc6S = biological target: Gal6S(b1-3)GlcNAc6S
In short: as §1

Gal6S(b1-4)Glc = biological target: Gal6S(b1-4)Glc
In short: as §1

Gal6S(b1-4)Glc6S = biological target: Gal6S(b1-4)Glc6S
In short: as §1

Gal6S(b1-4)GlcNAc = biological target: Gal6S(b1-4)GlcNAc
In short: as §1

Gal6S(b1-4)GlcNAc6S = biological target: Gal6S(b1-4)GlcNAc6S
In short: as §1

GalNAc(a1-3)Gal = biological target: GalNAc(a1-3)Gal
In short: as §1

GalNAc(a1-3)GalNAc = biological target: GalNAc(a1-3)GalNAc
In short: as §1

[1] = biological target: GalNAc(a1-3)GalNAc(b1-3)Gal(a1-4)Gal(b1-4)Glc
In short: as §1

[2] = biological target: GalNAc(a1-3)GalNAc(b1-3)Gal(a1-4)Gal(b1-4)GlcNAc
In short: as §1

GalNAc(b1-3)Gal = biological target: GalNAc(b1-3)Gal
In short: as §1

[3] = biological target: GalNAc(b1-3)Gal(a1-4)Gal(b1-4)GlcNAc
In short: as §1

[4] = biological target: GalNAc(b1-3)Gal(a1-4)Gal(b1-4)GlcNAc(b1-3)Gal(b1-4)Glc
In short: as §1

[5] = biological target: GalNAc(b1-3)Gal(a1-6)Gal(b1-4)Glc
In short: as §1

GalNAc(b1-3)GalNAc = biological target: GalNAc(b1-3)GalNAc
In short: as §1

GalNAc(b1-3)GlcNAc = biological target: GalNAc(b1-3)GlcNAc
In short: as §1

GalNAc(b1-4)Gal(b1-4)Glc = biological target: GalNAc(b1-4)Gal(b1-4)Glc
In short: as §1

GalNAc(b1-4)GlcNAc = biological target: GalNAc(b1-4)GlcNAc
In short: as §1

[6] = biological target: GalNAc(b1-4)GlcNAc(b1-2)Man
In short: as §1

[7] = biological target: GalNAc(b1-4)GlcNAc(b1-2)Man(a1-3)[GalNAc(b1-4)GlcNAc(b1-2)Man(a1-6)]Man(b1-4)GlcNAc(b1-4)GlcNAc
In short: as §1

[8] = biological target: GalNAc(b1-4)GlcNAc(b1-3)GalNAc(b1-4)GlcNAc
In short: as §1

GalNAc(b1-4)GlcNAc6S = biological target: GalNAc(b1-4)GlcNAc6S
In short: as §1

GalNAc(b1-6)GalNAc = biological target: GalNAc(b1-6)GalNAc
In short: as §1

GalNAc3S(b1-4)GlcNAc = biological target: GalNAc3S(b1-4)GlcNAc
In short: as §1

GalNAc3S(b1-4)GlcNAc3S = biological target: GalNAc3S(b1-4)GlcNAc3S
In short: as §1

[9] = biological target: GalNAc3S(b1-4)[Fuc(a1-3)]GlcNAc
In short: as §1

GalNAc4S6S(b1-4)GlcNAc = biological target: GalNAc4S6S(b1-4)GlcNAc
In short: as §1

GalNAc6S(b1-4)GlcNAc = biological target: GalNAc6S(b1-4)GlcNAc
In short: as §1

Glc(a1-4)Glc = biological target: Glc(a1-4)Glc
In short: as §1

[10] = biological target: Glc(a1-4)Glc(a1-4)Glc(a1-4)Glc
In short: as §1

Glc(a1-6)Glc(a1-6)Glc = biological target: Glc(a1-6)Glc(a1-6)Glc
In short: as §1

[11] = biological target: Glc(a1-6)Glc(a1-6)Glc(a1-6)Glc
In short: as §1

B1: LlpA (Burkholderia cenocepacia) (protein)
chain: MGSSHHHHHHSSGLVPRGSHKILGSNETLSAGNVVYSDNGQYHLAMQTDGNLVVYGPTGAVWQSQTSGSGGNRAVMQGDGNLVIYRADNTAAWSSKTAHPGAFLAVQDDGNVVIYWPRPAWASNTSDPATQQSAESKYLASGSTMSAGQTVTVAQYMLVFQADGNLVLYKNGGNPIWSTGTQGKGATYAVMQSDGNFVIYAGSTALWSTKTNGANGAQLVLQSDGNLVIYAPTAAWSTKFGLVTAPTSTSTSNNGPGSGICVGVCPPHPLNGNPFSPVGVGTTGLGFPTPGYPGAAF
**Q.** What does the source list for B1?
**A.** glycan array binding signal (z-score) (Gal3S4S(b1-4)GlcNAc): -0.458; glycan array binding signal (z-score) (Gal3S6S(b1-4)GlcNAc): 1.38; glycan array binding signal (z-score) (Gal3S6S(b1-4)GlcNAc6S): 1.42; glycan array binding signal (z-score) (Gal4S(b1-4)GlcNAc): -0.325; glycan array binding signal (z-score) (Gal4S6S(b1-4)GlcNAc): -0.942; glycan array binding signal (z-score) (Gal6P(b1-4)GlcNAc): -1.18; glycan array binding signal (z-score) (Gal6S(b1-3)GlcNAc): -0.403; glycan array binding signal (z-score) (Gal6S(b1-3)GlcNAc6S): -0.227; glycan array binding signal (z-score) (Gal6S(b1-4)Glc): 0.354; glycan array binding signal (z-score) (Gal6S(b1-4)Glc6S): -0.409; glycan array binding signal (z-score) (Gal6S(b1-4)GlcNAc): 0.308; glycan array binding signal (z-score) (Gal6S(b1-4)GlcNAc6S): 0.441; glycan array binding signal (z-score) (GalNAc(a1-3)Gal): -0.606; glycan array binding signal (z-score) (GalNAc(a1-3)GalNAc): -0.51; glycan array binding signal (z-score) [1]: -0.66; glycan array binding signal (z-score) [2]: -0.419; glycan array binding signal (z-score) (GalNAc(b1-3)Gal): -0.11; glycan array binding signal (z-score) [3]: -0.417; glycan array binding signal (z-score) [4]: -0.472; glycan array binding signal (z-score) [5]: 0.819; glycan array binding signal (z-score) (GalNAc(b1-3)GalNAc): 0.037; glycan array binding signal (z-score) (GalNAc(b1-3)GlcNAc): -0.95; glycan array binding signal (z-score) (GalNAc(b1-4)Gal(b1-4)Glc): 1.66; glycan array binding signal (z-score) (GalNAc(b1-4)GlcNAc): 0.076; glycan array binding signal (z-score) [6]: -0.899; glycan array binding signal (z-score) [7]: -0.504; glycan array binding signal (z-score) [8]: 0.099; glycan array binding signal (z-score) (GalNAc(b1-4)GlcNAc6S): -0.918; glycan array binding signal (z-score) (GalNAc(b1-6)GalNAc): -0.842; glycan array binding signal (z-score) (GalNAc3S(b1-4)GlcNAc): -0.027; glycan array binding signal (z-score) (GalNAc3S(b1-4)GlcNAc3S): 0.091; glycan array binding signal (z-score) [9]: 0.017; glycan array binding signal (z-score) (GalNAc4S6S(b1-4)GlcNAc): -0.004; glycan array binding signal (z-score) (GalNAc6S(b1-4)GlcNAc): 1.3; glycan array binding signal (z-score) (Glc(a1-4)Glc): -0.497; glycan array binding signal (z-score) [10]: 0.386; glycan array binding signal (z-score) (Glc(a1-6)Glc(a1-6)Glc): -0.468; glycan array binding signal (z-score) [11]: 0.011
